Data: PMC3591284

Molecular target: T1, GST-PRMT4 (UniProt Q86X55)
T1 sequence: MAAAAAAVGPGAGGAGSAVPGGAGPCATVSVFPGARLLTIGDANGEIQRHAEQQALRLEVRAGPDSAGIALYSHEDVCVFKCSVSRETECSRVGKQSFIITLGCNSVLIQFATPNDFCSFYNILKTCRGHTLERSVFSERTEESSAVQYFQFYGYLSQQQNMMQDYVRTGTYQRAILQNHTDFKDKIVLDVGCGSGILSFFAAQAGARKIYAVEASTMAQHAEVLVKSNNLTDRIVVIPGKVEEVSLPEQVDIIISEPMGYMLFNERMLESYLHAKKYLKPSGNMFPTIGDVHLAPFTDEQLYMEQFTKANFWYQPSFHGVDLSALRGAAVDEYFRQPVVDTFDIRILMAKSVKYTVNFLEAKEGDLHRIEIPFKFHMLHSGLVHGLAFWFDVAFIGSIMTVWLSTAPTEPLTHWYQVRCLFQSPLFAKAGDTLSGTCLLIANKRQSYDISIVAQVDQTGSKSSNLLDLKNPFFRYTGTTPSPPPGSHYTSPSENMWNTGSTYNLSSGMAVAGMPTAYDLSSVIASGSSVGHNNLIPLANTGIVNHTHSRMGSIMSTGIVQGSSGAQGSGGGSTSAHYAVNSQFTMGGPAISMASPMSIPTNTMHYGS
Assay: pull-down; glutathione beads-bound recombinant GST, GST-PRMT1, -4 and -6 with recombinant His-tagged c-Myb; anti-c-Myb Western blot; both purified

binding: binds
Substance: recombinant His-tagged c-Myb

These are yes or no findings as the source states them, for the method shown. A result given as binding can be weak or reduced; the word gives no strength. Where a sequence is shown, tags or fusion partners need not be part of it.
